Laboratory results taken from doi:10.1101/2023.08.31.555722.
No constants are given. Whether binding was seen depends on the method and setting. Binding seen in cells or lysates may run through a third protein. Some entries that bind do so weakly or less than the wild type. Tags and fused reporters may be left off the sequences shown.

T1: Vps39-FLAG (human) (UniProt Q96JC1)
T1 sequence: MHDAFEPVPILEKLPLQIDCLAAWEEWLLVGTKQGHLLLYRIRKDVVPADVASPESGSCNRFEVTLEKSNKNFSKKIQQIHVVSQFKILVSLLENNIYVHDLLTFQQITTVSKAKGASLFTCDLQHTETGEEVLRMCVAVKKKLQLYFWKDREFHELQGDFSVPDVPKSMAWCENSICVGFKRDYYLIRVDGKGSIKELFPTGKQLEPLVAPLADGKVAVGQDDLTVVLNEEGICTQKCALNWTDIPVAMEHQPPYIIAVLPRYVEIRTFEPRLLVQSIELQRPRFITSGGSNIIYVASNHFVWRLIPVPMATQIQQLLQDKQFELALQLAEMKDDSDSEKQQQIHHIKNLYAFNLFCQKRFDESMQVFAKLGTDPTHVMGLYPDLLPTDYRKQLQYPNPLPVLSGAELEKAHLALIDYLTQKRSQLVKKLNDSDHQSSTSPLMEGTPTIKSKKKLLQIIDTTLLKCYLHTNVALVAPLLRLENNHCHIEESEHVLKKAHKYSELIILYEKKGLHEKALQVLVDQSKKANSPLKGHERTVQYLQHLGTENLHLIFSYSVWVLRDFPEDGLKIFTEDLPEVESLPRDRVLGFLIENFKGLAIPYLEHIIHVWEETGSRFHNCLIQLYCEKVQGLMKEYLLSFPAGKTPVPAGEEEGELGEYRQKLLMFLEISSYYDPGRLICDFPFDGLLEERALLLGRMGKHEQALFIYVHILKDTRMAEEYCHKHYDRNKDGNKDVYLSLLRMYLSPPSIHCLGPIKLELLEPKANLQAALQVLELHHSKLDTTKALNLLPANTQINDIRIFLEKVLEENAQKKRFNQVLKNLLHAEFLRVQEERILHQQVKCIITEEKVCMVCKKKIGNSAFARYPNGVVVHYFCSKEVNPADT

T2: Vps41-FLAG (human) (UniProt P49754)
T2 sequence: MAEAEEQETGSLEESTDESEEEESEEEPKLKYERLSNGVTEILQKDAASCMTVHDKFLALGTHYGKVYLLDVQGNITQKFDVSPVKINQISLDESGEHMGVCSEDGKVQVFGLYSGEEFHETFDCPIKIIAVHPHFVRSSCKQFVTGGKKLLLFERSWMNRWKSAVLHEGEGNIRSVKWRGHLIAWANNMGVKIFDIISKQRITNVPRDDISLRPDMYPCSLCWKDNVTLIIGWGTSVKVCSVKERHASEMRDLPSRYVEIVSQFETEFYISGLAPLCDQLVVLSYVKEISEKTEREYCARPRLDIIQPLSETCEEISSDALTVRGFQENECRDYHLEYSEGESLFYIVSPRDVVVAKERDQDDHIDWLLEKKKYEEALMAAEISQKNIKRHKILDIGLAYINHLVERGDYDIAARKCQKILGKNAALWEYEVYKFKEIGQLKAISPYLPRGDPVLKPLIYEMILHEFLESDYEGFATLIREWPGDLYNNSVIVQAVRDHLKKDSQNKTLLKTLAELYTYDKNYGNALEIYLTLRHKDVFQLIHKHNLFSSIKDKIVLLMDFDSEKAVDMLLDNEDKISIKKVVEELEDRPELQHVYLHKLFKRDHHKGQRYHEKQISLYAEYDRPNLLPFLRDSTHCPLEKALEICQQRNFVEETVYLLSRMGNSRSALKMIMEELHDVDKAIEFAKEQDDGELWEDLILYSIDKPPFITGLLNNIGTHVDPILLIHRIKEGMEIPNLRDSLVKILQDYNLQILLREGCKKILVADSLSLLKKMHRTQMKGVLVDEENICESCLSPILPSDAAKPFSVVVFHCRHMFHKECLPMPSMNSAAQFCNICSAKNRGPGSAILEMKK

B1: Vps11 (protein, UniProt Q9H270 1-941)
chain: MAAYLQWRRFVFFDKELVKEPLSNDGAAPGATPASGSAASKFLCLPPGITVCDSGRGSLVFGDMEGQIWFLPRSLQLTGFQAYKLRVTHLYQLKQHNILASVGEDEEGINPLVKIWNLEKRDGGNPLCTRIFPAIPGTEPTVVSCLTVHENLNFMAIGFTDGSVTLNKGDITRDRHSKTQILHKGNYPVTGLAFRQAGKTTHLFVVTTENVQSYIVSGKDYPRVELDTHGCGLRCSALSDPSQDLQFIVAGDECVYLYQPDERGPCFAFEGHKLIAHWFRGYLIIVSRDRKVSPKSEFTSRDSQSSDKQILNIYDLCNKFIAYSTVFEDVVDVLAEWGSLYVLTRDGRVHALQEKDTQTKLEMLFKKNLFEMAINLAKSQHLDSDGLAQIFMQYGDHLYSKGNHDGAVQQYIRTIGKLEPSYVIRKFLDAQRIHNLTAYLQTLHRQSLANADHTTLLLNCYTKLKDSSKLEEFIKKKSESEVHFDVETAIKVLRQAGYYSHALYLAENHAHHEWYLKIQLEDIKNYQEALRYIGKLPFEQAESNMKRYGKILMHHIPEQTTQLLKGLCTDYRPSLEGRSDREAPGCRANSEEFIPIFANNPRELKAFLEHMSEVQPDSPQGIYDTLLELRLQNWAHEKDPQVKEKLHAEAISLLKSGRFCDVFDKALVLCQMHDFQDGVLYLYEQGKLFQQIMHYHMQHEQYRQVISVCERHGEQDPSLWEQALSYFARKEEDCKEYVAAVLKHIENKNLMPPLLVVQTLAHNSTATLSVIRDYLVQKLQKQSQQIAQDELRVRRYREETTRIRQEIQELKASPKIFQKTKCSICNSALELPSVHFLCGHSFHQHCFESYSESDADCPTCLPENRKVMDMIRAQEQKRDLHDQFQHQLKCSNDSFSVIADYFGRGVFNKLTLLTDPPTARLTSSLEAGLQRDLLMHSRRGT
B2: Vps18 (protein, UniProt Q9P253 1-973)
chain: MASILDEYENSLSRSAVLQPGCPSVGIPHSGYVNAQLEKEVPIFTKQRIDFTPSERITSLVVSSNQLCMSLGKDTLLRIDLGKANEPNHVELGRKDDAKVHKMFLDHTGSHLLIALSSTEVLYVNRNGQKVRPLARWKGQLVESVGWNKALGTESSTGPILVGTAQGHIFEAELSASEGGLFGPAPDLYFRPLYVLNEEGGPAPVCSLEAERGPDGRSFVIATTRQRLFQFIGRAAEGAEAQGFSGLFAAYTDHPPPFREFPSNLGYSELAFYTPKLRSAPRAFAWMMGDGVLYGALDCGRPDSLLSEERVWEYPEGVGPGASPPLAIVLTQFHFLLLLADRVEAVCTLTGQVVLRDHFLEKFGPLKHMVKDSSTGQLWAYTERAVFRYHVQREARDVWRTYLDMNRFDLAKEYCRERPDCLDTVLAREADFCFRQRRYLESARCYALTQSYFEEIALKFLEARQEEALAEFLQRKLASLKPAERTQATLLTTWLTELYLSRLGALQGDPEALTLYRETKECFRTFLSSPRHKEWLFASRASIHELLASHGDTEHMVYFAVIMQDYERVVAYHCQHEAYEEALAVLARHRDPQLFYKFSPILIRHIPRQLVDAWIEMGSRLDARQLIPALVNYSQGGEVQQVSQAIRYMEFCVNVLGETEQAIHNYLLSLYARGRPDSLLAYLEQAGASPHRVHYDLKYALRLCAEHGHHRACVHVYKVLELYEEAVDLALQVDVDLAKQCADLPEEDEELRKKLWLKIARHVVQEEEDVQTAMACLASCPLLKIEDVLPFFPDFVTIDHFKEAICSSLKAYNHHIQELQREMEEATASAQRIRRDLQELRGRYGTVEPQDKCATCDFPLLNRPFYLFLCGHMFHADCLLQAVRPGLPAYKQARLEELQRKLGAAPPPAKGSARAKEAEGGAATAGPSREQLKADLDELVAAECVYCGELMIRSIDRPFIDPQRYEEEQLSWL

What was measured:
[1] = target: T1, Vps39-FLAG (human); experiment: co-IP
[2] = target: T2, Vps41-FLAG (human); experiment: co-IP

Binder | binding [1] | binding [2]
B1 | binds | binds
B2 | binds | binds
